# The other results are listed elsewhere or left out. The main result of the screen is listed elsewhere. These columns were measured beside it and carry no call. Compounds called inactive in the main read-out are mostly missing here. Potencies come from curve fits of mixed quality, noted in brackets.
# Assay: IkB Signaling
# Conditions: ABC-DLBCL IkBa-CBG/CBR dual luciferase ratio (green luciferase fused to IkBa over red control in OCI-Ly3 lymphoma cells), 4 h
# Method in brief: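 In this assay, an IκBα–CBG68 fusion accumulates when IKK-driven degradation is blocked; native CBR normalizes for cell number. OCI-Ly3 cells were treated 4 h with compound and doxycycline, then green and red light read after Chroma-Glo addition.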
# [1] = measured here: control luc red channel unless noted
smiles,measurement,setting,value
Cc1cc(C)c(NC(=O)CCN2C(=O)c3ccccc3Sc3ncccc32)c(C)c1,AC50,[1],"3.98 µM [rising, partial curve]"
CSc1nc(Nc2ccc(C)cc2C)cc(-c2ccccc2)n1,AC50,[1],"12.6 µM [falling, partial curve]"
CN(Cc1ccccc1)C(=O)C1CCN(S(=O)(=O)c2ccc3c(c2)oc(=O)n3C)CC1,AC50,[1],"39.8 µM [falling, single point]"
COc1ccc(-c2cc(-c3ccccc3O)[nH]n2)cc1OC,AC50,[1],"7.94 µM [falling, full curve]"
CCCCCNC(=O)c1ccc2c(c1)ncn2-c1cccc(C)c1,AC50,[1],"20 µM [falling, single point]"
Cc1cccc(C(=O)Nc2nnc(S(=O)(=O)N(C)Cc3ccc(Cl)cc3)s2)c1,AC50,[1],"2 µM [falling, partial curve]"
Cc1ccc(C(=O)NCC(c2ccc3c(c2)OCO3)N2CCN(c3ccc(F)cc3)CC2)cc1 (stereo not drawn),AC50,[1],"31.6 µM [falling, partial curve]"
Cc1ccccc1C(=O)Nc1ccccc1OCc1cc(=O)n2ccccc2n1,AC50,[1],"15.8 µM [falling, partial curve]"
Cc1ccc2nc(NC(=O)CCNS(=O)(=O)c3cccs3)sc2c1,AC50,[1],"10 µM [falling, partial curve]"
COc1ccccc1N1CCN(C(=O)c2sc3nc(-c4ccccc4)cn3c2C)CC1,AC50,[1],"10 µM [falling, partial curve]"
CCN(CC)c1nc2c(S(=O)(=O)c3ccccc3)nnn2c2ccc(Cl)cc12,AC50,[1],"0.316 µM [falling, full curve]"
Cc1cccc(-c2nc(S(=O)(=O)c3ccc(Cl)cc3)c(N3CCCCCC3)o2)c1,AC50,[1],"12.6 µM [falling, partial curve]"
COc1cccc(-c2nc(SCC(=O)NCC3CCCO3)c(-c3ccc(C)cc3)[nH]2)c1 (stereo not drawn),AC50,[1],"12.6 µM [falling, partial curve]"
CCOc1ccc(NC(=O)c2cc3c(C)nn(-c4ccccc4)c3s2)cc1,AC50,[1],"12.6 µM [falling, partial curve]"
COc1ccc(NC(=O)c2ccc3c(=O)n4nc(Nc5ccccc5C)sc4nc3c2)cc1Cl,AC50,[1],"25.1 µM [falling, single point]"
Cc1cccc(Cn2cc(/C=C(/C#N)C(=O)Nc3cccc(Cl)c3)c3ccccc32)c1,AC50,[1],"0.631 µM [falling, full curve]"
CCN(C(=O)c1cc2c(=O)oc3ccccc3c2s1)c1ccc(C)c(C)c1,AC50,[1],"10 µM [falling, partial curve]"
O=C(Cn1nc(-c2ccccc2)nc(Cc2ccccc2)c1=O)Nc1ccc(Cl)cc1,AC50,[1],"5.01 µM [falling, single point]"
Cc1oc(-c2ccc(C(=O)NCCN(C)C)cc2)nc1CS(=O)(=O)c1ccccc1,AC50,[1],"1.26 µM [falling, full curve, poor fit]"
COc1ccc(Br)cc1C(=O)Nc1ccc(-c2nc3ncccc3o2)cc1C,AC50,[1],"15.8 µM [rising, partial curve]"
CCc1ccc(NC(=O)CSc2ccc3nc(-c4ccc(OC)cc4)cn3n2)cc1,AC50,[1],"10 µM [falling, partial curve]"
COc1ccc(NC(=O)c2ccc(-c3ccc(-c4noc(C)n4)cc3C)cc2)cc1N1CCN(C)CC1,AC50,[1],"39.8 µM [falling, single point]"
CC(=O)NC1Sc2ccccc2N=C1c1ccccc1 (stereo not drawn),AC50,[1],"2.51 µM [rising, partial curve]"
CCC(=O)N1CCc2cc(Br)cc(S(=O)(=O)N3CCC(C(=O)Nc4ccccc4F)CC3)c21,AC50,[1],"25.1 µM [falling, partial curve]"
Cc1cc(N2CCN(C(=O)c3ccco3)CC2)nc(-c2ccccc2)n1,AC50,[1],"12.6 µM [falling, partial curve]"
O=C(Nc1ccc(Cl)cc1Cl)c1cc(S(=O)(=O)N2CCCCCC2)ccc1F,AC50,[1],"10 µM [falling, partial curve, poor fit]"
Cc1cc(C)cc(C(=O)n2nc(C)c(S(=O)(=O)N3CCCCCC3)c2C)c1,AC50,[1],"15.8 µM [falling, partial curve]"
CCCCS(=O)(=O)c1oc(-c2cccs2)nc1S(=O)(=O)c1ccc(F)cc1,AC50,[1],"12.6 µM [falling, partial curve]"
Cc1c(C(=O)N2CCN(c3ccc(F)cc3)CC2)sc2nc3n(c(=O)c12)CCC3,AC50,[1],"6.31 µM [rising, single point]"
O=C1CC(c2cc(F)cc(F)c2)c2cc3c(cc2N1)OCO3 (stereo not drawn),AC50,[1],"39.8 µM [falling, single point]"
CCN(C(=O)CSc1nnc(Cn2nnc3ccccc32)o1)c1nc(-c2ccccc2)cs1,AC50,[1],"15.8 µM [falling, partial curve]"
CCCOc1ccc(NC(=O)CC2C(=O)N(c3ccc(C)cc3)C(=O)N2CCc2ccncc2)cc1 (stereo not drawn),AC50,[1],"39.8 µM [falling, single point]"
COc1ccc(C(=O)c2ccc(OC)c(N)c2)cc1N,AC50,measured here: IkB-luc green channel,"31.6 µM [rising, partial curve]"
same,AC50,measured here: control luc red channel,"10 µM [rising, partial curve]"
Cc1ccc(CN(C(=O)COc2ccccc2[N+](=O)[O-])c2ccccn2)cc1,AC50,[1],"39.8 µM [falling, single point]"
CCC(CC)C(=O)Nc1nnc(S(=O)(=O)N2CCc3ccccc32)s1,AC50,[1],"2.51 µM [rising, partial curve]"
O=C(NCc1ccccc1Cl)C1CCN(C(=O)N2CCOc3ccccc32)CC1,AC50,[1],"5.01 µM [falling, full curve]"
Nc1nc(N)c2nc(CNc3ccc(C(=O)N[C@H](CCC(=O)O)C(=O)O)cc3)cnc2n1,AC50,[1],"39.8 µM [rising, partial curve, poor fit] [measured here: IkB-luc green channel]"
[O-][N+]1=c2ccc(Nc3ccccc3)cc2=NC12CCCCC2,AC50,[1],"5.01 µM [falling, partial curve]"
Cc1ccccc1CNC(=O)c1oc2c(c1C)-c1nn(Cc3ccc(Cl)cc3)cc1CC2,AC50,[1],"15.8 µM [falling, single point]"
CCC(Sc1nc(-c2ccccc2)[nH]c1S(=O)(=O)c1ccc(C)cc1)C(=O)O (stereo not drawn),AC50,[1],"15.8 µM [falling, partial curve]"
CCCCn1c(=S)[nH]c2c(oc3ccc(Cl)cc32)c1=O,AC50,[1],"1 µM [falling, full curve, poor fit]"
COc1ccc(N2CCN(C(=O)C3CCN(S(=O)(=O)c4cccc5nonc45)CC3)CC2)cc1,AC50,[1],"3.16 µM [rising, partial curve]"
O=C(Nc1ccc(-c2nc3ccccc3o2)c(O)c1)c1ccccc1,AC50,[1],"3.16 µM [rising, partial curve]"
O=S(=O)(c1ccc(F)cc1)N1CN(Cc2ccco2)c2nc3ccccc3nc21,AC50,[1],"10 µM [falling, partial curve]"
COc1ccc(NC(=O)Cn2c(=O)c3cccn3c3ccccc32)cc1Cl,AC50,[1],"20 µM [falling, partial curve]"
COc1cccc2sc(NC(=O)c3ccc(S(=O)(=O)N4CCC(C)CC4)cc3)nc12,AC50,[1],"10 µM [falling, partial curve]"
COc1ccc(C)cc1NC(=O)Nc1cc(C(=O)NCc2ccc(C)cc2)ccc1N1CCCC1,AC50,[1],"3.98 µM [falling, partial curve]"
CC1CCN(c2nc(-c3ccncc3)nc3ccccc23)CC1,AC50,[1],"39.8 µM [falling, single point]"
COc1ccc(-c2nc3sc(CCNC(=O)Cc4ccc(F)cc4)c(C)n3n2)cc1,AC50,[1],"39.8 µM [falling, partial curve, poor fit]"
CCOc1ccc(CNCc2c(C(=O)O)c(C)n(Cc3ccc(C)cc3)c2C)cc1,AC50,[1],"31.6 µM [falling, single point]"
CCCn1nnc(NC(=O)c2cccc(OCC(C)C)c2)n1,AC50,[1],"3.16 µM [rising, partial curve]"
CCOc1ccccc1OCCCCn1c(-c2ccc(Cl)cc2)nc2ccccc2c1=O,AC50,[1],"15.8 µM [falling, partial curve]"
COc1cc(Cl)c(NC(=O)CCc2nc3cccnc3n2-c2ccccc2)c(OC)c1,AC50,[1],"25.1 µM [falling, single point]"
O=C(CSc1nc2cc3ccccc3cc2[nH]1)Nc1ccc(F)cc1,AC50,[1],"12.6 µM [falling, partial curve]"
Cc1ccc(NC(=O)c2cnc(SCC(=O)N3CCCc4ccccc43)n(C)c2=O)cc1,AC50,[1],"5.01 µM [falling, partial curve]"
CC(C)(C)OC(=O)N1CCC(c2c(C(=O)N3CCN(c4ccccc4F)CC3)cnn2-c2ccccc2Cl)CC1,AC50,[1],"25.1 µM [falling, partial curve]"
CCOc1ccc(NC(=O)CCNS(=O)(=O)c2ccc3c(c2)CCCC(=O)N3)cc1,AC50,[1],"39.8 µM [falling, single point]"
Cc1ccc2cc(CCNC(=O)c3ccc(Br)o3)c(=O)[nH]c2c1,AC50,[1],"12.6 µM [falling, partial curve]"
CCOc1ccc(NC(=O)c2c(NCc3cccnc3)sc3c2CCC(C)C3)cc1 (stereo not drawn),AC50,[1],"39.8 µM [falling, single point]"
CCN(CC)C(=O)Cn1c(=O)n(-c2ccc(C)c(C)c2)c(=O)c2c(C)c(C(=O)N(CC)CC)sc21,AC50,[1],"7.94 µM [rising, single point]"
CCN1CCN(C(=O)c2cnn(-c3ccc(F)cc3F)c2C2CCN(C(=O)OC(C)(C)C)CC2)CC1,AC50,[1],"1.26 µM [rising, partial curve]"
CC(=O)c1sc(NC(=O)c2c(-c3ccccc3)c(-c3ccccc3)nn(C)c2=O)nc1C,AC50,[1],"20 µM [falling, partial curve]"

# In a second layout: results already given.
smiles	measurement	setting	value
COc1ccc(NC(=O)Cn2c(=O)c3cccn3c3ccccc32)cc1Cl	AC50	[1]	20 µM [falling, partial curve]
COc1cccc2sc(NC(=O)c3ccc(S(=O)(=O)N4CCC(C)CC4)cc3)nc12	AC50	[1]	10 µM [falling, partial curve]
COc1ccc(C)cc1NC(=O)Nc1cc(C(=O)NCc2ccc(C)cc2)ccc1N1CCCC1	AC50	[1]	3.98 µM [falling, partial curve]
CC1CCN(c2nc(-c3ccncc3)nc3ccccc23)CC1	AC50	[1]	39.8 µM [falling, single point]
COc1ccc(-c2nc3sc(CCNC(=O)Cc4ccc(F)cc4)c(C)n3n2)cc1	AC50	[1]	39.8 µM [falling, partial curve, poor fit]
